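Primary screen of methionyl-tRNA synthetase; the read-out is not stated. Target: Methionyl-tRNA synthetase (putative), Leishmania donovani (UniProt E9BF75). The test concentration is not given. Values are per cent inhibition. About 68,000 compounds were tested under these conditions; 0.035% (about 24) showed 50% or more at least once.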

By UniProt entry, the sequences of proteins in these tests, tags left out.
UniProt E9BF75, entry or part of it: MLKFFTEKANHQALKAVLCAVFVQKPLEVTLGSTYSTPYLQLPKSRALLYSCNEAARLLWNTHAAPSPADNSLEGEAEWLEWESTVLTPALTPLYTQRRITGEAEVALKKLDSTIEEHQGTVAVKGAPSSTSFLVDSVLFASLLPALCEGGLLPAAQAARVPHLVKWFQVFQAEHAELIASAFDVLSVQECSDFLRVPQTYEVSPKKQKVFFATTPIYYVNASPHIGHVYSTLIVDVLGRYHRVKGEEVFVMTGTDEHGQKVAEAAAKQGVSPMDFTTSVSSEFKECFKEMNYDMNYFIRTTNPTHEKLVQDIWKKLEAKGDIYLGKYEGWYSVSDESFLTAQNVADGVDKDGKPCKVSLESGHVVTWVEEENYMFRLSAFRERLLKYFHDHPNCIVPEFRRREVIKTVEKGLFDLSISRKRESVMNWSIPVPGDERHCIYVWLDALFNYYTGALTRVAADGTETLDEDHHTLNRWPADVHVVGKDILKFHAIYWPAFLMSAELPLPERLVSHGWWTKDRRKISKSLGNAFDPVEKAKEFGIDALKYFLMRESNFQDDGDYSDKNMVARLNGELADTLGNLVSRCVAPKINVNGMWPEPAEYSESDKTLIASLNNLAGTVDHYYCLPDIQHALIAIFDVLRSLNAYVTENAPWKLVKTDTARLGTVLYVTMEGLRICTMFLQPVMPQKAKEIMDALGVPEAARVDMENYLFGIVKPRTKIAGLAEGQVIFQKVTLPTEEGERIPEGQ

All values are in %.
The record does not define 0% and 100%; most values in the screen are far below 50% and negative numbers occur (in some assays of this library far below -100).
This is an unselected part of the compounds tested.

| compound | Inhibition |
|---|---|
| `CCCOC1Sc2nnc(C)n2N=C1c1ccccc1` (configuration not stated) | 19.47% |
| `CC(CO)(NC(=O)Nc1nnc(C2CC2)s1)C1CCCCC1` (configuration not stated) | 4.696% |
| `NC(=O)C1CCN(C(=O)c2ccn(-c3cccc(Cl)c3)n2)C1` (configuration not stated) | 14.53% |
| `CN(C)CCOCC1CN(Cc2ccoc2)Cc2nnn(C)c21` (configuration not stated) | 3.922% |
| `COCCNC(=O)c1nc2c(s1)CCCN2c1ccc(C)nn1` | 4.511% |
| `COCCN(Cc1ccc(C)o1)C(=O)Nc1ncc(C)s1` | 6.587% |
| `Cc1cnn(C2CCCN(C(=O)c3cc(-c4ccco4)[nH]n3)C2)c1` (configuration not stated) | 18.12% |
| `O=C(c1ccco1)N1CCc2onc(CN3CCCC3)c2C1` | -0.3484% |
| `CCc1n[nH]c(C2CN(C(=O)c3ccc(NC4CC4)nc3)CCO2)n1` (configuration not stated) | 10.5% |
| `CN(C)C(=O)C1CN(c2ncccn2)CCN1C` (configuration not stated) | 18.1% |
| `O=C(NCc1ccccn1)[C@@H]1COC[C@H]2CN(c3ncccn3)C[C@H]21` | 11.68% |
| `CCN1CCOCC2(CCCN(c3nncs3)C2)C1` (configuration not stated) | 18.25% |
| `COc1cc(F)cc(CNC(=O)Nc2ccn(CC(F)F)n2)c1` | -4.01% |
| `O=C(NCC1CC1)c1ccc(NC(=O)c2ccco2)cc1` | 11.17% |
| `Nc1nnc(CCCNC(=O)c2ccc(C3CCCNC3)cc2)s1` (configuration not stated) | 5.943% |
| `OCCN1CCC(F)(F)C2(CCN(c3cnccn3)C2)C1` (configuration not stated) | 9.29% |
| `NC(=O)NC(=O)CCN(Cc1ccccc1)CC1CCOCC1` | 13.48% |
| `Nc1nc2c(c(NC3CCCC3)n1)CCN(C(=O)C1CCOC1)CC2` (configuration not stated) | 1.37% |
| `CC1CN(C)CCN1C(=O)c1ccn(-c2ccccc2)n1` (configuration not stated) | -0.8547% |
| `CN1CCN(C(=O)[C@H]2C[C@H]3[C@H](CCN3Cc3cccs3)O2)CC1` | 6.593% |
| `CN(C)c1ncc2c(n1)C1(CCN(Cc3ccccc3F)C1)COC2` (configuration not stated) | 9.774% |
| `CN(Cc1ccsc1)C(=O)Nc1ccc(S(=O)(=O)N(C)C)cc1` | 9.859% |
| `CCCNCc1cc2c(C)cc(C)cc2n2c(=O)n(C)nc12` | 16.78% |
| `O=C(O)c1cccnc1CN(Cc1ccsc1)C1CC1` | 11.03% |
| `CCn1nc2c(cc1=O)CN(Cc1nc(N)c3ccccc3n1)CC2` | 13.3% |
| `Cn1nc2c(cc1=O)CN(Cc1coc(-c3cccc(F)c3)n1)CC2` | 11.96% |
| `CN(C)Cc1cn2c(n1)CN(C(=O)Cc1ccsc1)CC2` | 18.4% |
| `CSCC(C)(O)CNC(=O)c1cc(Cl)ccc1Cl` (configuration not stated) | 10.14% |
| `CN(Cc1cccc(O)c1)Cc1cnn(C)c1` | -0.2793% |
| `COc1ccc(F)cc1CN1CCCC(c2cc(C(N)=O)[nH]n2)C1` (configuration not stated) | 10.49% |
| `Cc1nc(C)c(CC(=O)Nc2ncc(C)s2)c(=O)[nH]1` | 20.41% |
| `Nc1nccc(C2CCCCN2Cc2cccc(F)c2)n1` (configuration not stated) | 9.677% |
| `Cc1occc1C(=O)N1CCC2(CC1)CN(c1ccccn1)CCO2` | 4% |
| `O=C(CN1CCCCC1)N1CCC(c2cc(=O)n3c(n2)CCCCC3)C1` (configuration not stated) | 12.22% |
| `COc1cccc(C(=O)Nc2cc(CC(C)C)nn2C)c1` | 10.12% |
| `Cc1cc(S(=O)(=O)NCC(C)(C)N)c(F)cc1F` | 22.52% |
| `COCC1CN(c2ccc(C)nn2)Cc2cnn(C)c21` (configuration not stated) | 16.39% |
| `CC1c2ccc(F)cc2CCN1C(=O)c1nc(=O)[nH][nH]1` (configuration not stated) | 17.48% |
| `CC1c2ncc(Cn3cccn3)n2CCN1Cc1cccnc1` (configuration not stated) | 18.27% |
| `Cc1cc(C)n(CCNCc2cc(-c3ccc(F)cc3)c[nH]c2=O)n1` | 22.33% |
| `O=C(CS(=O)(=O)C1CCCC1)NC(c1ccc(F)cc1)C1CC1` (configuration not stated) | 17.18% |
| `O=C1C(NCc2nnc3n2CCCC3)CCN1c1ccccc1Cl` (configuration not stated) | 5.263% |
| `CC(=O)c1cccc(NC(=O)CN2CCCC(C3OCCO3)C2)c1` (configuration not stated) | 3.846% |
| `CCN1CC2(CCC1=O)CCN(CCc1nccn1C)CC2` | 15.14% |
| `CN(Cc1ccn[nH]1)C(=O)CCC(=O)NC1CCCC1` | 6.875% |
| `O=C(NC1CC1)c1ccc(SCc2cscn2)cc1` | 0.7326% |
| `CCN(C)c1ccc(CNC(=O)CCn2cc(C)cn2)cc1F` | 12.77% |
| `Cc1ccc2cccc(S(=O)(=O)N(C)C3CCCN(C)C3)c2n1` (configuration not stated) | 5.376% |
| `CSCC(CCO)NC(=O)Nc1cc(Br)ccc1C` (configuration not stated) | 12.32% |
| `Cc1cc(C)c2c(c1)C(NCc1nnc3n1CCC3)CCCO2` (configuration not stated) | 17.6% |
| `c1cncc(COCC2CN(Cc3ccco3)Cc3ccnn3C2)c1` (configuration not stated) | 8.55% |
| `CO[C@H]1C[C@@H]2CN(C(=O)c3ccc(C)s3)C[C@@H]2C1` | 14.95% |
| `CNC(=O)c1ccc(-n2c(COCC(=O)O)nc3c(C)cccc32)o1` | 11.69% |
| `COc1ccnc(N(C)Cc2ccccc2O)n1` | 11.5% |
| `COc1ccc(CC(=O)N2CCCC2c2nc(C)c(C)c(O)n2)cc1` (configuration not stated) | 12.86% |
| `Cc1noc2ncc(C(=O)NCC3CCN(C(C)C)C3)cc12` (configuration not stated) | 12.24% |
| `Clc1ccc(NCc2nnc(C3CC3)o2)cc1Cl` | 16.43% |
| `NC1(CN2CCCCC2)CCCCC1` | 9.974% |
| `O=c1c2cccnc2cnn1CC(O)c1ccc(F)c(F)c1` (configuration not stated) | 9.774% |
| `CS(=O)(=O)c1ccc(-c2ccccc2C(=O)O)cc1` | 13.06% |
| `O=C1CCC2(CCCN(CCn3cc(Cl)cn3)C2)CN1C1CCCC1` (configuration not stated) | 15.48% |
| `CCNC(=O)[C@@H]1C[C@@H](NC(=O)c2ccc(C)cc2O)CN1CCCSC` | 16.56% |
| `CCc1c(O)nc(SCC(=O)c2ccccc2)n(-c2ccccc2)c1=O` | 9.651% |
| `Cc1ccsc1-c1nc(CN(C)Cc2noc(C(C)C)n2)c(C)o1` | 4.469% |
| `CC(C)S(=O)(=O)N1CCC(c2[nH]ncc2S(C)(=O)=O)C1` (configuration not stated) | 7.767% |
| `CC(=O)N1CCCCC[C@@H]2[C@@H]1[C@H](c1cccc(F)c1)CN2C(C)=O` | 12.73% |
| `c1ccc2c(c1)CC(N1CCCC(NCc3ccc4nonc4c3)C1)C2` (configuration not stated) | 11.82% |
| `O=C(c1cscn1)N1CCC2(CN(Cc3nccs3)C2)C1` | 6.044% |
| `CN1CC(=O)N(c2ccsc2)CC12CCN(S(=O)(=O)C1CC1)C2` (configuration not stated) | 15.57% |
| `O=C(CSC1CCc2ccccc2NC1=O)NCCO` (configuration not stated) | 7.407% |
| `Cc1cnn(CC2CCCN2C(=O)CCc2c(C)nc(C)[nH]c2=O)c1` (configuration not stated) | -11.26% |
| `Nc1ncnc2c1ncn2[C@H]1CCN(Cc2ccsc2)CC[C@@H]1O` | 12% |
| `CCN(CC)c1ccc(CNC(=O)c2ccc(=O)[nH]n2)cn1` | 1.397% |
| `Cc1noc(C)c1CC(=O)N1CCCN(Cc2cscn2)CC1` | 10.38% |
| `CCn1nc(C)cc1C(=O)NCc1cccnc1N(C)C` | 20.5% |
| `O=C(NCCCn1ccnc1)C1COCC(=O)N1Cc1ccccc1` (configuration not stated) | 10.64% |
| `CC1(C(=O)NCCN2CCCCC2)CCCN1C(=O)c1ccccc1` (configuration not stated) | 15.86% |
| `CCC(C)N(Cc1cccnc1)C(=O)c1ncccc1O` (configuration not stated) | 11.8% |
| `COCC(=O)N1CCC2(C1)c1ccccc1S(=O)(=O)N2CC1CC1` (configuration not stated) | 3.825% |
| `Cc1cccnc1NC(=O)CSc1ccc2c(c1)OCCO2` | 11.5% |
| `CC(Nc1ccc(CN2CCCC2=O)cc1)c1ccc(C#N)cc1` (configuration not stated) | 18.11% |
| `CC(C)CCC(C)NC(=O)c1ccc(OCC(N)=O)cc1` (configuration not stated) | 11.96% |
| `FC(F)(F)COCCN1CCc2cncnc2C1` | 22.29% |
| `Cc1cnn(CC(=O)N2CCC3(CCC(=O)N(CCCO)C3)CC2)c1` | 9.6% |
| `CN(C)c1nc(N2CCCC2)nc2c1CCN(C(=O)c1ccoc1)CC2` | 2.256% |
| `O=C(CCNC(=O)C1CCCC1)NCc1cccnc1-n1cncn1` | 18.11% |
| `Cc1n[nH]c(C2CN(CCCOc3cccc(Cl)c3)CCO2)n1` (configuration not stated) | 9.946% |
| `Cn1cc(C(=O)NCc2cncc3c2CCN(CC2CC2)C3)cn1` | 5.279% |
| `Clc1ccccc1CNC(Cn1cncn1)c1ccccc1` (configuration not stated) | 6.452% |
| `CN(C)C[C@]12COC[C@H]1CN(Cc1ccc3c(c1)OCO3)C2` | 10.56% |
| `Cc1cc(CN(C)C(=O)CN2CCCCCC2=O)no1` | 15.05% |
| `COCCOc1ccccc1C(=O)Nc1c(C)cnn1CC1CC1` | 5.017% |
| `Cc1cnn(CC2CCCN2Cc2nccn2C)c1` (configuration not stated) | 0.6944% |
| `CN1CCC(Oc2ccc(NC(=O)c3cccc(Cl)c3)cc2)CC1` | 5.512% |
| `Cc1nc(CCCNC(=O)C2CC(=O)N(C(C)(C)C)C2)sc1C` (configuration not stated) | 18.5% |

Measurements from “University of Dundee, Small-Polar-MMV Screening Library” (2021), ChEMBL document CHEMBL3988442.